Test results from PubChem BioAssay AID1671190 (National Center for Advancing Translational Sciences (NCATS), 2021).
Several values for one entry are separate records, joined by “and”; a condition that tells them apart may be missing. Equal values may be shown once. Screen size: about 580,000 compounds; about 6,100 (1.1%) were called active. The inconclusive results got no clear call from the source; some entries with a clear call stand among them for comparison. The call rests on the fitted dose curve; in most records, active means well fitted inhibition curve with a large enough effect; inconclusive means small, poorly fitted or top-dose-only effect, or another doubt; inactive means no such curve, though single readings can be large or run the other way. A potency beside an inconclusive call is a rough fit, not a confirmed value.

Protein sequences, listed by entry. Tags and fused reporters are not part of them. Lines headed by an entry give the natural chain unless they say otherwise; changes in a name come on top.
UniProt P18054: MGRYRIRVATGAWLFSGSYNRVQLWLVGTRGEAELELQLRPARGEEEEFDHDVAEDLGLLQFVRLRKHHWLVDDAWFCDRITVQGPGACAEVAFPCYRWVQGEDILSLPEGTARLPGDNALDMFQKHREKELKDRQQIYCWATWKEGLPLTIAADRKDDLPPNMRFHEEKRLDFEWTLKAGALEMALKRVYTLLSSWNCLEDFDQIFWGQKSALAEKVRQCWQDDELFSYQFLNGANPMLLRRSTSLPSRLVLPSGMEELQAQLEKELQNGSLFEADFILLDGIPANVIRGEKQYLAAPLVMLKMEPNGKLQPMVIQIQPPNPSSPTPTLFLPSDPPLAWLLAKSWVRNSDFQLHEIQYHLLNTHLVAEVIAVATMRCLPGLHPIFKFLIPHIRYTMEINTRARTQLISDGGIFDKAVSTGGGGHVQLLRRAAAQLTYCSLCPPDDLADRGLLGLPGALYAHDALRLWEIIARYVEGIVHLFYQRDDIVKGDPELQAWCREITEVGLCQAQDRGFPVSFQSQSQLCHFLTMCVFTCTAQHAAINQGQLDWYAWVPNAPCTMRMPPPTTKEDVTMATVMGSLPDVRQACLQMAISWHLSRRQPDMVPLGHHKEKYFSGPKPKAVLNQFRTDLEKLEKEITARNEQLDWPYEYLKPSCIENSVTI

biological target: Polyunsaturated fatty acid lipoxygenase ALOX12 (Homo sapiens) (UniProt P18054); test: Primary qHTS assay for inhibitors of human arachidonate 12S-lipoxygenase (ALOX12): Round 2; conditions: purified 12hLO, xylenol orange hydroperoxide absorbance; activity change, negative = inhibition: at 108 µM (top of the series) unless noted
Outline: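 Hydroperoxide product was detected by ferrous iron/xylenol orange as the 573 to 405 nm absorbance ratio. Arachidonic acid at 40 uM (final) was turned over for 30 min at room temperature by 150 nM human 12hLO, pH 7.0 Hepes buffer, after 15 min compound preincubation.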
On the % scale 0 is the no-effect control and ±100 the full control effect; potency means the concentration at half of the fitted maximal effect.

Structure (SMILES) | Potency | activity change, negative = inhibition
CN(C)/C=N/c1nc2nccc(-c3ccc(F)cc3)n2n1 | inconclusive: 44.7 µM [inhibitor, full curve, poor fit] | –
O=C(NCc1ccco1)C1=COC2=NC(=O)N(Cc3ccccc3)CCN12 | inconclusive: 141 µM [inhibitor, single point] | –
COc1cc(/C=C/C(=O)c2cccc(O)c2)cc(Cl)c1O | active: 25.1 µM | –
CCOC(=O)C1=C(C)N(C)C(=S)NC1c1cccc(Cl)c1Cl (centres undefined) | inconclusive: 50.1 µM [inhibitor, partial curve, poor fit] | –
O=C(Nc1ccc(Cl)cc1)N1CCC2(CC1)C(=O)NCN2Cc1ccc(Cl)cc1 | inconclusive: 35.5 µM [inhibitor, partial curve, poor fit] | –
O=C(CCc1ncc(-c2ccc(F)cc2F)o1)Nc1ccc(N2CCOCC2)cc1N1CCOCC1 | inconclusive: 50.1 µM [inhibitor, partial curve, poor fit] | –
C[C@H](C[C@H](N)C(=O)O)C(=O)O | inconclusive: 25.1 µM [inhibitor, partial curve, poor fit] | –
COC(=O)c1cccn2cc(CN3CCN(S(=O)(=O)c4cccc(C(F)(F)F)c4)CC3)nc12 | – | inactive: 31.3%
COc1ccc(-c2oc3cc(O)c(OC)c(O)c3c(=O)c2OC)cc1 | – | inactive: 8.46%
S=C(NCCSCc1ccccc1Cl)Nc1ccccc1 | active: 35.5 µM | –
CC(=O)Nc1ccc(S(=O)(=O)NC2(C(F)(F)F)NC(=O)N(c3ccc(Cl)cc3)C2=O)cc1 (centres undefined) | inconclusive: 2.51 µM [inhibitor, full curve, poor fit] | –
CCOc1ccc(C2C(C(=O)c3ccco3)=C(O)C(=O)N2CCCn2ccnc2)cc1OC (centres undefined) | – | inactive: -19.7%
Cc1cc(C(=O)C(C)Sc2nnnn2Cc2cccs2)c(C)n1Cc1ccco1 (centres undefined) | inconclusive: 44.7 µM [inhibitor, partial curve, poor fit] | –
COC(=O)c1c(C)sc(-c2c(-c3cccc(OC)c3)[nH]c3c2c(=O)[nH]c(=O)n3C)c1O | inconclusive: 50.1 µM [inhibitor, partial curve, poor fit] | –
O=C(COc1ccccc1Cl)Nc1ccc(C(=O)O)cc1NC(=O)COc1ccccc1Cl | – | inactive: 2.4%
O=C(c1cnccn1)N1C[C@@H]2OCC(=O)N(c3ccccc3)[C@@H]2C1 | – | inactive: -9.4% [at 176 µM]
CCOc1ccc(C2CC(c3ccc(F)cc3)n3ncnc3N2)cc1 (centres undefined) | inconclusive: 31.6 µM [inhibitor, partial curve, poor fit] | –
CCn1c(COc2ccc(Cl)c(C)c2)n[nH]c1=S | inconclusive: 7.94 µM [inhibitor, full curve, poor fit] | –
N#CC(Sc1ccccn1)c1ccc(Cl)cc1Cl (centres undefined) | inconclusive: 10 µM [inhibitor, full curve] | –
Cc1cccc(C(=O)Nc2ccc(-c3nc4ccccc4o3)c(O)c2)c1 | inconclusive: 50.1 µM [inhibitor, partial curve, poor fit] | –
CCNc1ccc(C)cc1C | inconclusive: 10 µM [inhibitor, full curve, poor fit] | –
COc1ccc(-c2cc(C(=O)N3CCc4ccccc4C3)no2)cc1 | – | inactive: -9.67%

Exported as comma-separated lines: part of the list above
Structure (SMILES),Potency,"activity change, negative = inhibition"
CN(C)/C=N/c1nc2nccc(-c3ccc(F)cc3)n2n1,"inconclusive: 44.7 µM [inhibitor, full curve, poor fit]",–
O=C(NCc1ccco1)C1=COC2=NC(=O)N(Cc3ccccc3)CCN12,"inconclusive: 141 µM [inhibitor, single point]",–
COc1cc(/C=C/C(=O)c2cccc(O)c2)cc(Cl)c1O,active: 25.1 µM,–
CCOC(=O)C1=C(C)N(C)C(=S)NC1c1cccc(Cl)c1Cl (centres undefined),"inconclusive: 50.1 µM [inhibitor, partial curve, poor fit]",–
O=C(Nc1ccc(Cl)cc1)N1CCC2(CC1)C(=O)NCN2Cc1ccc(Cl)cc1,"inconclusive: 35.5 µM [inhibitor, partial curve, poor fit]",–
O=C(CCc1ncc(-c2ccc(F)cc2F)o1)Nc1ccc(N2CCOCC2)cc1N1CCOCC1,"inconclusive: 50.1 µM [inhibitor, partial curve, poor fit]",–
C[C@H](C[C@H](N)C(=O)O)C(=O)O,"inconclusive: 25.1 µM [inhibitor, partial curve, poor fit]",–
COC(=O)c1cccn2cc(CN3CCN(S(=O)(=O)c4cccc(C(F)(F)F)c4)CC3)nc12,–,inactive: 31.3%
COc1ccc(-c2oc3cc(O)c(OC)c(O)c3c(=O)c2OC)cc1,–,inactive: 8.46%
S=C(NCCSCc1ccccc1Cl)Nc1ccccc1,active: 35.5 µM,–
CC(=O)Nc1ccc(S(=O)(=O)NC2(C(F)(F)F)NC(=O)N(c3ccc(Cl)cc3)C2=O)cc1 (centres undefined),"inconclusive: 2.51 µM [inhibitor, full curve, poor fit]",–
CCOc1ccc(C2C(C(=O)c3ccco3)=C(O)C(=O)N2CCCn2ccnc2)cc1OC (centres undefined),–,inactive: -19.7%
Cc1cc(C(=O)C(C)Sc2nnnn2Cc2cccs2)c(C)n1Cc1ccco1 (centres undefined),"inconclusive: 44.7 µM [inhibitor, partial curve, poor fit]",–

(more compounds)

Structure (SMILES) | Potency | activity change, negative = inhibition
O=C(COC(=O)c1ccc(-c2ccccc2)s1)c1ccccc1 | – | inactive: -2.44%
O=C(NCC1(c2ccccc2)CC1)c1n[nH]c(=O)c2ccccc12 | inconclusive: 35.5 µM [inhibitor, single point] | –
O=C(N/N=C/c1ccc(OC(=O)c2ccc([N+](=O)[O-])cc2)cc1)c1cccnc1 | – | inactive: 0.0834%
CN1CCN(NS(=O)(=O)c2ccc(Cl)s2)CC1 | – | inactive: -8.27%
N#C/C(=C/c1ccccc1)c1ccc(C(F)(F)F)cn1 | inconclusive: 31.6 µM [inhibitor, partial curve, poor fit] | –
CCN1/C(=C2\C(=O)N(C)C(=S)N2C)C=Cc2cc(OC)ccc21 | inconclusive: 89.1 µM [inhibitor, single point] | –
CC1(c2cccc(Br)c2)NC(=O)N(CC(=O)NC2CCCCC2)C1=O (centres undefined) | inconclusive: 0.282 µM [inhibitor, full curve, poor fit] | –
Nc1ccc(Sc2ccc([N+](=O)[O-])cc2)cc1 | inconclusive: 50.1 µM [inhibitor, partial curve, poor fit] | –
CCOC(=O)c1c(NC(=O)COC(=O)c2ccccn2)sc(C)c1C | inconclusive: 3.55 µM [inhibitor, full curve, poor fit] | –
O=C(/C=C/c1ccc2ccccc2n1)c1cc(Br)ccc1O | inconclusive: 112 µM [inhibitor, single point] | –
CCN1CCN(c2cc(C)c3cc(NC(=O)c4ccc(Br)o4)ccc3n2)CC1 | – | inactive: -8.56%
CCOC(=O)C1=C(C)Nc2nc(=S)[nH]n2C1c1ccc(Cl)cc1 (centres undefined) | inconclusive: 14.1 µM [inhibitor, partial curve, poor fit] | –
Cc1ccc(S(=O)(=O)N(CCC(=O)N2CCOCC2)c2ccccc2)cc1 | – | inactive: -25.6%
CCOc1cccc(CN2C[C@@H]3C(=O)N(CCN4CCc5ccccc5C4)C(=O)[C@@H]3C2)c1 | – | inactive: -3.53%
O=C1C2CCCN2C(=O)N1CCCN1CCN(c2cccc(Br)c2)CC1 (centres undefined) | active: 3.98 µM | –
COCCOc1cc(C)c2c(c1C)C[C@H](C(C)C(=O)N1CCC(O)CC1)CC2 (some centres undefined) | – | inactive: -24.6% [at 176 µM]
O=C(NCC(c1cccs1)N1CCCCCC1)c1cc(=O)c2ccc(Br)cc2o1 (centres undefined) | – | inactive: -16.4%
Cc1cc(Cl)ccc1S(=O)(=O)N1CCCC1c1nncn1-c1ccccc1 (centres undefined) | inconclusive: 31.6 µM [inhibitor, partial curve, poor fit] | –
CCOC(=O)N1CCN(C(=O)CSc2nc(-c3cccc(C)c3)ns2)CC1 | inconclusive: 141 µM [inhibitor, single point] | –
COc1cccc(C2NC(=S)NC3=C2CCc2ccccc23)c1 (centres undefined) | inconclusive: 28.2 µM [inhibitor, partial curve] and inconclusive: 44.7 µM [inhibitor, partial curve, poor fit] | –
COc1cc(/C=C/C(=O)c2ccc3c(c2)OCCO3)cc(OC)c1OC | – | inactive: 0.661%
Cc1cccc(N2CCN(C(=O)CN3CCOc4ccccc43)CC2C)c1 (centres undefined) | inconclusive: 79.4 µM [inhibitor, partial curve, poor fit] | –
